Our source for the binding values is publication PMC8455547.

The target in one experiment is T1, Purified GST–Id2 (UniProt Q02363).
T1 sequence: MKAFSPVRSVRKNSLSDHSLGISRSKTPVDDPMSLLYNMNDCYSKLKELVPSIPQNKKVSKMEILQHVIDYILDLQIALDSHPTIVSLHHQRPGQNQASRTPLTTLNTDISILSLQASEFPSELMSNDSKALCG
In words: pull-down; purified GST–Id2 reacted with PC12 cell lysate (during PC12 cell differentiation); immunoblotting; only the target purified. In general terms: Immunoblotting shows a protein as a band on a membrane.

The target in experiment [1] is T2, Id2 (endogenous, HEK293T) (human (endogenous in HEK293T)) (UniProt Q02363).
T2 sequence: T1 sequence
Put plainly: co-IP; lysates of HEK293T cells transfected with HA–Akt WT or CA-Akt; endogenous proteins immunoprecipitated and immunoblotted as indicated.

Experiment [2] has as its target GST–α-tubulin intermediate domain. Put plainly: pull-down; lysates of co-transfected cells (HEK293T where named) mixed with glutathione–sepharose beads, 3 h at 4 °C; 50 mM Tris-Cl pH 7.4, 150 mM NaCl, 1 mM EDTA, 0.5% Triton X-100; immunoblotting; in some panels with HA–Akt WT or CA Akt, or Akt inhibitor VIII (1 μM, 6 h).

Results are given in words; binding and its absence hold for the method and conditions named. Binding seen in cells or lysates may run through a third protein. A result given as binding can be weak or reduced; the word gives no strength. For some of these results: Sequences can lack the tags named with a protein.

As for “β-tubulin (endogenous, PC12 cells) (rat (endogenous in PC12))”, the binding result with Purified GST–Id2 is on record as “binds”. “α-tubulin (endogenous, HEK293T) (human (endogenous in HEK293T))”: the binding entry in experiment [1] is “binds”.

B1: GFP–Id2 (protein, UniProt Q02363 1-134)
chain: T1 sequence
Turning to B1, the binding result in experiment [2] is “binds”.

B2: Flag–Sirt2 (enzyme, UniProt Q8IXJ6 1-389)
chain: MAEPDPSHPLETQAGKVQEAQDSDSDSEGGAAGGEADMDFLRNLFSQTLSLGSQKERLLDELTLEGVARYMQSERCRRVICLVGAGISTSAGIPDFRSPSTGLYDNLEKYHLPYPEAIFEISYFKKHPEPFFALAKELYPGQFKPTICHYFMRLLKDKGLLLRCYTQNIDTLERIAGLEQEDLVEAHGTFYTSHCVSASCRHEYPLSWMKEKIFSEVTPKCEDCQSLVKPDIVFFGESLPARFFSCMQSDFLKVDLLLVMGTSLQVQPFASLISKAPLSTPRLLINKEKAGQSDPFLGMIMGLGGGMDFDSKKAYRDVAWLGECDQGCLALAELLGWKKELEDLVRREHASIDAQSGAGVPNPSTSASPKKSPPPAKDEARTTEREKPQ
On to B2, for which the binding result in experiment [2] is listed as “binds”.
